Reference: PubChem BioAssay AID1159584 (Peter MacCallum Cancer Centre, 2016)
Shown is an unselected part of about 18,000 reagents. Further read-outs or replicates are left out here. Not given: the amount of reagent, the time to read-out.

- Assay: 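Genes whose loss is lethal only together with E-cadherin loss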 (primary screen)
- System: human MCF10A breast epithelial cells, parental and CDH1-null
- Knock-down reagent: siRNA against human genes
- Measurement: 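ATP luminescence (CellTiter-Glo) viability per line relative to mean mock wells over all plates, and the ratio of CDH1-null to parental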
- Scale: CDH1-null / parental viability ratio: higher = CDH1-null cells survive relatively better than parental; CDH1-null viability vs mock: higher = more viable CDH1-null cells

ZMYND12 gave CDH1-null / parental viability ratio 1.09; CDH1-null viability vs mock (fraction of mock) = 0.93.
Knock-down of GNA14 resulted in: CDH1-null / parental viability ratio 0.89; CDH1-null viability vs mock (fraction of mock) = 0.64.
For CEP350, the values are CDH1-null / parental viability ratio 0.88; CDH1-null viability vs mock (fraction of mock) = 0.91.
Knock-down of OR52N2 came out at: CDH1-null / parental viability ratio 0.91; CDH1-null viability vs mock (fraction of mock) = 0.78.
SIK1 showed CDH1-null / parental viability ratio 1.02; CDH1-null viability vs mock (fraction of mock) = 0.84.
After knock-down of HVCN1, the screen gave CDH1-null / parental viability ratio 1.34; CDH1-null viability vs mock (fraction of mock) = 1.1.
DHRSX showed CDH1-null / parental viability ratio 0.88; CDH1-null viability vs mock (fraction of mock) = 0.65.

2 entries already listed, arranged by “CDH1-null / parental viability ratio”, lowest first:
OR52N2 — CDH1-null / parental viability ratio: 0.91; CDH1-null viability vs mock (fraction of mock): 0.78
SIK1 — CDH1-null / parental viability ratio: 1.02; CDH1-null viability vs mock (fraction of mock): 0.84

Additional results follow:
DDN showed CDH1-null / parental viability ratio 1.17; CDH1-null viability vs mock (fraction of mock) = 0.91.
With knock-down of TNFSF12, the screen gave CDH1-null / parental viability ratio 1.17; CDH1-null viability vs mock (fraction of mock) = 0.77.
Silencing of CSNK2A2 resulted in: CDH1-null / parental viability ratio 0.91; CDH1-null viability vs mock (fraction of mock) = 0.5.
After knock-down of LINC02897, the screen gave CDH1-null / parental viability ratio 0.95; CDH1-null viability vs mock (fraction of mock) = 0.8.
Against OFCC1, the values are CDH1-null / parental viability ratio 1.06; CDH1-null viability vs mock (fraction of mock) = 0.36.
SOWAHA gave CDH1-null / parental viability ratio 0.62; CDH1-null viability vs mock (fraction of mock) = 0.45.
Depletion of OR3A1 came out at: CDH1-null / parental viability ratio 0.86; CDH1-null viability vs mock (fraction of mock) = 0.69.
